# Values quoted from earlier work, collected in patent EP2057185B1, “POLYMYXIN DERIVATIVES AND USES THEREOF” (Northern Antibiotics Oy, priority 2006, dated 2008).
# Not every detail of the peptide structures is certain; ends, links or a residue may be inferred. Bridge positions count the residues as written; N and C are the ends. Square brackets hold non-standard residues; d marks the D form. Peptide text beside a SMILES is read from it. * marks the point of attachment. Octanoyl = CCCCCCCC(=O)*; Dab = NCC[C@H](N)C(=O)O
# System: E. coli
# Details: Sakura et al. 2004; cited from earlier work
structure (smiles),measurement,value
"CCCCCCCC(=O)N[C@H]1CCNC(=O)[C@H]([C@@H](C)O)NC(=O)[C@H](CCN)NC(=O)[C@H](CCN)NC(=O)[C@H](CC(C)C)NC(=O)[C@@H](Cc2ccccc2)NC(=O)[C@H](CCN)NC1=O [Octanoyl PMBH, octanoyl polymyxin B heptapeptide, reference compound] (Octanoyl-[Dab][Dab][dF]L[Dab][Dab]T; lactam 1-C)",concentration needed to inhibit the growth,128 µg/mL
